Reference: paper PMC8893259
These are yes or no findings as the source states them, for the method shown. Some results given as binding are weak or reduced against the parent protein; the word gives no strength.

Protein sequences, listed by entry. Tags and fused reporters are not part of them.
UniProt P61829: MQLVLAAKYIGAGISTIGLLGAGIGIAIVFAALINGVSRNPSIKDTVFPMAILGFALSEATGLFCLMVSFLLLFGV

Experiments:
[1] = target: subunit 9 of yeast mitochondrial ATP synthase (S. cerevisiae (endogenous in yeast mitochondria)) (UniProt P61829); test: native gel or EMSA; BN-PAGE (3-10% polyacrylamide) of digitonin extracts (50 µg protein) of mitochondria from atp6Δ yeast grown in rich galactose; blot probed with antibodies against subunit 9
[2] = target: subunit 9 of yeast mitochondrial ATP synthase (S. cerevisiae (endogenous in yeast mitochondria)) (UniProt P61829); test: native gel or EMSA; BN-PAGE (3-10% polyacrylamide) of digitonin extracts (50 µg protein) of mitochondria from atp12Δ yeast (no F1) grown in rich galactose; blot probed with antibodies against subunit 9

subunit 9 of yeast mitochondrial ATP synthase (from UniProt P61829 1-76)
binding [1]: binds | binding [2]: no binding (condition: in atp12Δ yeast (F1 absent))
